# From paper PMC12363165
# The chains behind the UniProt entries cited, without tags or fusion partners. Where a name states a change or a piece, a line headed by the entry shows the natural chain unless it says otherwise. Residues count along the entry.
# UniProt P98175: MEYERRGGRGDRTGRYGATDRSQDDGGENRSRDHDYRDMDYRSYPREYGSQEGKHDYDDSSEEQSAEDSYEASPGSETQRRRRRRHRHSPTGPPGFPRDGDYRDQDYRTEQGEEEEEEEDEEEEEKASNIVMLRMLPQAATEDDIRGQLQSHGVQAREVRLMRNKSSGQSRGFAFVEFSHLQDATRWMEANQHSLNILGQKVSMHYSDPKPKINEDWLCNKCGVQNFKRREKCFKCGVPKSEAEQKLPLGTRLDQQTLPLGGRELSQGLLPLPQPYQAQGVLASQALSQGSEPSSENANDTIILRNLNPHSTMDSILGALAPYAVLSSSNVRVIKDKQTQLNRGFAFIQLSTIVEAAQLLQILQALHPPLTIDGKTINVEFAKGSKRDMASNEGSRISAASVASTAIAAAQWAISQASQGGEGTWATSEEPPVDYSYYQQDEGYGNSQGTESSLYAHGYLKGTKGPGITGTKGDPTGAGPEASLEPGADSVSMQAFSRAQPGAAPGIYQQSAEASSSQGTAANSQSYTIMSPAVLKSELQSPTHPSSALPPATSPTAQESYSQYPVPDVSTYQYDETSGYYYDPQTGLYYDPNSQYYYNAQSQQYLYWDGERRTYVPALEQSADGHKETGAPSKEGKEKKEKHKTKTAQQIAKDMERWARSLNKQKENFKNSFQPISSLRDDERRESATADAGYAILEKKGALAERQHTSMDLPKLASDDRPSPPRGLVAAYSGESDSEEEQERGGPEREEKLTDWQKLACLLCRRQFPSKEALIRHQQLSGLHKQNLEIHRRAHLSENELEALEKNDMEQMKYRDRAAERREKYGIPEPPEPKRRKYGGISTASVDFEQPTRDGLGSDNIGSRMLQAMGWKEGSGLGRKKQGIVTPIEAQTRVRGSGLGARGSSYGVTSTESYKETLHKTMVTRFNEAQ
# UniProt P05923: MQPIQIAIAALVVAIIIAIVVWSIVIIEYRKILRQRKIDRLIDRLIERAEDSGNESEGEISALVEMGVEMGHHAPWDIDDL
# UniProt Q10589, residues 1-161: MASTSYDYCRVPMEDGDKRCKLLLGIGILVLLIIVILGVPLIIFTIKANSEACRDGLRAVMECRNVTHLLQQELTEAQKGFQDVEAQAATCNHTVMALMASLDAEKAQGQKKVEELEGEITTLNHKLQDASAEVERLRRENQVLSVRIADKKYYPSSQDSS
# No constants are given. Whether binding was seen depends on the method and setting. In cells and extracts the contact can be indirect. Some results given as binding are weak or reduced against the parent protein; the word gives no strength.
# Key:
# [1] = biological target: RBM10 in the other NanoBiT fusion combinations (human) (UniProt P98175); assay: split reporter; NanoBiT in HEK293T cells co-transfected 1:1 with Vpu and RBM10 LgBiT/SmBiT fusions; luminescence of live cells 48 h after transfection; empty vector as negative control
# [2] = biological target: Vpu-V5-APEX2 (HIV-1 viral protein U fused to a V5-APEX2 tag) (HIV-1) (UniProt P05923); assay: co-IP; V5-tagged Vpu as bait: HeLa lysate (Pierce IP lysis buffer), anti-V5 magnetic beads 2 h at 4 C; western blot with anti-human RBM10
# [3] = biological target: RNA-binding motif protein 10 (RBM10), endogenous (human (endogenous in HeLa)) (UniProt P98175); assay: co-IP; RBM10 as bait: lysate in RIPA buffer, pre-incubated with protein A/G beads, anti-RBM10 polyclonal antibody or IgG overnight at 4 C; western blot with anti-V5
# [4] = biological target: RBM10 fused to SmBiT (pBiT2.1-C-rbm10) (human) (UniProt P98175); assay: split reporter; NanoBiT in HEK293T cells co-transfected 1:1 with Vpu and RBM10 LgBiT/SmBiT fusions; luminescence of live cells 48 h after transfection; empty vector as negative control
# [5] = biological target: BST-2 (tetherin) of the Vpu-BST-2 binding test of Fig. S4A (UniProt Q10589); assay: split reporter; Vpu-BST-2 binding of Fig. S4A; the method is not named for this figure, the Vpu mutants were made as NanoBiT reporter vectors
substance,measurement,setting,value
Vpu in the other NanoBiT fusion combinations (from UniProt P05923 1-81),binding,[1],binds
"RNA-binding motif protein 10 (RBM10), endogenous (from UniProt P98175 1-930)",binding,[2],binds
Vpu-V5-APEX2 (HIV-1 viral protein U fused to a V5-APEX2 tag) (from UniProt P05923 1-81),binding,[3],binds
Vpu with LgBiT fused to its C-terminus (pBiT1.1-C-vpu) (from UniProt P05923 1-81),binding,[4],binds
same,binding,[5],binds
